According to patent publication US20070054846A1, “Bcl-w structure and uses therefor” (priority 2002, published 2007):
No constants are given. Whether binding was seen depends on the method and setting. For some assays here: Binding seen in cells or lysates may run through a third protein. Some results given as binding are weak or reduced against the parent protein; the word gives no strength. Where a sequence is shown, tags or fusion partners need not be part of it.

Chains of the proteins cited; added tags and fusions are not shown. Lines headed by an entry give the natural chain unless they say otherwise; changes in a name come on top. A line that says so, or that is headed by a name, gives the form on record, which may keep a tag or linker.
BimLΔC27 (O54918, form named): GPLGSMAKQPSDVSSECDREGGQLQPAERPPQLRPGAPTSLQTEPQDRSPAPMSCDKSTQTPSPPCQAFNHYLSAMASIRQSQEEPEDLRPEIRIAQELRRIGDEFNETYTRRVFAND
BimLΔC27-L94A (O54918, form named): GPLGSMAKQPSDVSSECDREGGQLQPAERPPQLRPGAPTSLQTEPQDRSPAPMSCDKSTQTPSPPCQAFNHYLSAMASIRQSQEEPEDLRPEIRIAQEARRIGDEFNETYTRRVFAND
Bim (O54918, form named): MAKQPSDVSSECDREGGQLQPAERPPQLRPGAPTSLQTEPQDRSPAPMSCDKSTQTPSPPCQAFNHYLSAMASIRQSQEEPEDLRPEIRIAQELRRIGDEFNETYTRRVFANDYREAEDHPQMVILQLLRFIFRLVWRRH
UniProt Q91ZE9: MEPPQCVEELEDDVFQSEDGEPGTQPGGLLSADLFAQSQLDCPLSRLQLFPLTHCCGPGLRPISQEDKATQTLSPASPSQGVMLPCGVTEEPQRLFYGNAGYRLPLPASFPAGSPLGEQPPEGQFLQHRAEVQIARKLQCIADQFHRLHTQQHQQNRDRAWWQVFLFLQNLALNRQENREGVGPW

Columns and labels:
BimLΔC27 (mouse) [1] = target: BimLΔC27 (mouse) (UniProt O54918); assay: GST pull-down
BimLΔC27-L94A (mouse) [2] = target: BimLΔC27-L94A (mouse) (UniProt O54918); assay: GST pull-down
BimLΔC27 (mouse) [3] = target: BimLΔC27 (mouse) (UniProt O54918); assay: GST pull-down, Coomassie-stained SDS-PAGE
BimLΔC27-L94A (mouse) [4] = target: BimLΔC27-L94A (mouse) (UniProt O54918); assay: GST pull-down, Coomassie-stained SDS-PAGE
Bim = Bim (UniProt O54918); assay: FIGS. 3, 4 and not shown
[5] = target: Bmf (Mus musculus (Mouse)) (UniProt Q91ZE9); assay: FIGS. 3, 4 and not shown

Binder | binding (BimLΔC27 (mouse) [1]) | binding (BimLΔC27-L94A (mouse) [2]) | binding (BimLΔC27 (mouse) [3]) | binding (BimLΔC27-L94A (mouse) [4]) | binding (Bim) | binding [5]
GST-Bcl-wΔC29 (protein, not shown: a dimerising Fc or GST; large carriers; small tags and cut ends) MATPASAPDTRALVADFVGYKLRQKGYVCGAGPGEGPAADPLHQAMRAAGDEFETRFRRTFSDLAAQLHVTPGSAQQRFTQVSDELFQGGPNWGRLVAFFVFGAALCAESVNKEMEPLVGQVQEWMVAYLETRLADWIHSSGGWAEFTALYGDGALEEARRLRE | binds | binds | binds | binds | – | –
FLAG Bcl-wΔC23 (protein, not shown: small tags and cut ends) MATPASAPDTRALVADFVGYKLRQKGYVCGAGPGEGPAADPLHQAMRAAGDEFETRFRRTFSDLAAQLHVTPGSAQQRFTQVSDELFQGGPNWGRLVAFFVFGAALCAESVNKEMEPLVGQVQEWMVAYLETRLADWIHSSGGWAEFTALYGDGALEEARRLREGNWASV | – | – | – | – | binds | binds
GST-Bcl-w (full-length) (protein, not shown: a dimerising Fc or GST; small tags and cut ends) MATPASAPDTRALVADFVGYKLRQKGYVCGAGPGEGPAADPLHQAMRAAGDEFETRFRRTFSDLAAQLHVTPGSAQQRFTQVSDELFQGGPNWGRLVAFFVFGAALCAESVNKEMEPLVGQVQEWMVAYLETRLADWIHSSGGWAEFTALYGDGALEEARRLREGNWASVRTVLTGAVALGALVTVGAFFASK | binds | – | binds | – | – | –

Results, then the binder that gave them:

binding (BimLΔC27 (mouse) [1]) | binding (BimLΔC27-L94A (mouse) [2]) | binding (BimLΔC27 (mouse) [3]) | binding (BimLΔC27-L94A (mouse) [4]) | binding (Bim) | binding [5] | Binder
– | – | – | – | binds | binds | FLAG Bcl-wΔC29 (protein, not shown: small tags and cut ends) MATPASAPDTRALVADFVGYKLRQKGYVCGAGPGEGPAADPLHQAMRAAGDEFETRFRRTFSDLAAQLHVTPGSAQQRFTQVSDELFQGGPNWGRLVAFFVFGAALCAESVNKEMEPLVGQVQEWMVAYLETRLADWIHSSGGWAEFTALYGDGALEEARRLRE
– | – | – | – | binds | binds | FLAG Bcl-w (full-length, expressed in 293T cells) (protein, not shown: small tags and cut ends) MATPASAPDTRALVADFVGYKLRQKGYVCGAGPGEGPAADPLHQAMRAAGDEFETRFRRTFSDLAAQLHVTPGSAQQRFTQVSDELFQGGPNWGRLVAFFVFGAALCAESVNKEMEPLVGQVQEWMVAYLETRLADWIHSSGGWAEFTALYGDGALEEARRLREGNWASVRTVLTGAVALGALVTVGAFFASK
– | – | – | – | binds | binds | FLAG Bcl-wΔC20 (protein, not shown: small tags and cut ends) MATPASAPDTRALVADFVGYKLRQKGYVCGAGPGEGPAADPLHQAMRAAGDEFETRFRRTFSDLAAQLHVTPGSAQQRFTQVSDELFQGGPNWGRLVAFFVFGAALCAESVNKEMEPLVGQVQEWMVAYLETRLADWIHSSGGWAEFTALYGDGALEEARRLREGNWASVRTV
